Source: publication doi:10.1101/2022.04.19.488815
Like-named read-outs stand apart in the source and are kept apart here. These are yes or no findings as the source states them, for the method shown. Binding seen in cells or lysates may run through a third protein. Some binding calls cover weakened binding; strength is not graded here. For some assays here: Tags and fused reporters may be left off the sequences shown.

Amino acid sequences for entries named in this document (tags omitted).
UniProt Q9FIJ0: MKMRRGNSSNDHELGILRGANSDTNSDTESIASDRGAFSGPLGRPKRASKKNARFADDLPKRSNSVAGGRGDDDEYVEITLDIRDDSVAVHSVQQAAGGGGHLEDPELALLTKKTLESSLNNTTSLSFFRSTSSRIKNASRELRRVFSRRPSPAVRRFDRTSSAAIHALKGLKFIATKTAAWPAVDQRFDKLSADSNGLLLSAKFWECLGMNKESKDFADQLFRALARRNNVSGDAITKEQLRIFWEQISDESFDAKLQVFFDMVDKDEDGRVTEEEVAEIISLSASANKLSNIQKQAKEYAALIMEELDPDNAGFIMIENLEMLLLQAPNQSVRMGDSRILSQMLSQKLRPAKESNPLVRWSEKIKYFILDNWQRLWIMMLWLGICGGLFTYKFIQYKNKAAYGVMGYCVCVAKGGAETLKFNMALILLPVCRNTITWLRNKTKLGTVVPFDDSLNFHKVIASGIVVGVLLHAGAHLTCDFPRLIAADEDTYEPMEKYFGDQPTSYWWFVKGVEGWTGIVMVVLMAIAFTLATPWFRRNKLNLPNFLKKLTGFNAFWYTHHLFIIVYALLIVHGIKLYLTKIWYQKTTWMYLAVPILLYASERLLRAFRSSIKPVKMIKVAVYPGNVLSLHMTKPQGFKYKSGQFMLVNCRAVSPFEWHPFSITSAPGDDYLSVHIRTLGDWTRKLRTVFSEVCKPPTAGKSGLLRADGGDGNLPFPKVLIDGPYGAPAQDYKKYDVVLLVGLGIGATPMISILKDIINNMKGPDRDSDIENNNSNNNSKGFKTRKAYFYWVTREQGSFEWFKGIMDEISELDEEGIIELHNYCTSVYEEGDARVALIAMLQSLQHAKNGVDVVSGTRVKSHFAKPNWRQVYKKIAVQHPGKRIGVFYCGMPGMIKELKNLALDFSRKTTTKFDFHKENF

Legend:
[1] = molecular target: T1, P2K1-nYFP (Arabidopsis thaliana) (UniProt Q9LSR8); assay: split reporter
T1 sequence: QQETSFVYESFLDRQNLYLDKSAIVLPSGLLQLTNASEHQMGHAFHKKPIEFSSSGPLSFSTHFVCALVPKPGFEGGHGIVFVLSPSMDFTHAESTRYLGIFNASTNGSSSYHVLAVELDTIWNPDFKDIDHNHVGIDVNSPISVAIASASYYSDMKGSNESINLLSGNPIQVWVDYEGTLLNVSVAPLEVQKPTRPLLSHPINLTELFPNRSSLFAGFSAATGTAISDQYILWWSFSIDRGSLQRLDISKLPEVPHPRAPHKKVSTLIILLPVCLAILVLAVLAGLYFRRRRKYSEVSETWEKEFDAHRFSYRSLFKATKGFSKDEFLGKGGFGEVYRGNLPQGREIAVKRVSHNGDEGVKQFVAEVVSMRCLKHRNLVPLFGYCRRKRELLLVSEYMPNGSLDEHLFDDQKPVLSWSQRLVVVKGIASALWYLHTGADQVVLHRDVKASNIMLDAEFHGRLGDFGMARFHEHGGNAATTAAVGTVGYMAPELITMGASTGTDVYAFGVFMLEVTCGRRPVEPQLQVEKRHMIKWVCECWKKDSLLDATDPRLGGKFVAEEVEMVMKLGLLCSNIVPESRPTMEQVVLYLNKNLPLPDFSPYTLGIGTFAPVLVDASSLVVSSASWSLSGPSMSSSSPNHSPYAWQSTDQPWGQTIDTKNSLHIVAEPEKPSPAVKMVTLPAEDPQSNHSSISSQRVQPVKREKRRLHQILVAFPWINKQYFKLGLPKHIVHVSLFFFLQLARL

[2] = molecular target: P2K1 (LecRK I.9) fused to a split-luciferase half, for LCI (Arabidopsis thaliana) (UniProt Q9LSR8); assay: split reporter
[3] = molecular target: ILK5^S192D, split-luciferase fusion for LCI (Arabidopsis thaliana) (UniProt Q93Z30); assay: split reporter
[4] = molecular target: ILK5^S192A, split-luciferase fusion for LCI (Arabidopsis thaliana) (UniProt Q93Z30); assay: split reporter
[5] = molecular target: ILK5-cLUC (Arabidopsis thaliana) (UniProt Q93Z30); assay: split reporter
[6] = molecular target: T1, P2K1-nYFP (Arabidopsis thaliana); assay: split reporter; remark: listed apart in the source
[7] = molecular target: T2, HA-tagged P2K1 (Arabidopsis thaliana) (UniProt Q9LSR8); assay: co-IP
T2 sequence: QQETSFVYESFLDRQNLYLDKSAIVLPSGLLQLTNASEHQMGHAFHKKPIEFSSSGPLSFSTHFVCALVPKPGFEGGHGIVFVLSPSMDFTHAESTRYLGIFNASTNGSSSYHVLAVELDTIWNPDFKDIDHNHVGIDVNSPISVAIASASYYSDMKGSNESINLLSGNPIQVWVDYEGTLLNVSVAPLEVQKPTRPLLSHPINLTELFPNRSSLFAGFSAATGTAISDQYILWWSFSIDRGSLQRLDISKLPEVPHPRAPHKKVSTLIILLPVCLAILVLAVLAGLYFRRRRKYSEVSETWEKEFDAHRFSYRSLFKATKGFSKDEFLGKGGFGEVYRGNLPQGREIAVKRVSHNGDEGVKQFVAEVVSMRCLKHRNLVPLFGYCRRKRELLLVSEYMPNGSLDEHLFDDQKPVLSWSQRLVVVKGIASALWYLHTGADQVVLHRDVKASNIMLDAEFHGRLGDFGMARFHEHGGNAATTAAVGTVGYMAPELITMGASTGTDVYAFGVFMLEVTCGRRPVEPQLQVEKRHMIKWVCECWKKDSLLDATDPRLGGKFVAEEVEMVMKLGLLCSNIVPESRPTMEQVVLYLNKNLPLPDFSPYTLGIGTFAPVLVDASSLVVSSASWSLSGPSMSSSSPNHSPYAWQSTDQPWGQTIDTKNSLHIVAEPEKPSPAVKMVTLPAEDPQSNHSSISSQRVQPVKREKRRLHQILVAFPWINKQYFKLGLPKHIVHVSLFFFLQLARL

[8] = molecular target: T3, ILK5-cYFP (Arabidopsis thaliana) (UniProt Q93Z30); assay: split reporter
T3 sequence: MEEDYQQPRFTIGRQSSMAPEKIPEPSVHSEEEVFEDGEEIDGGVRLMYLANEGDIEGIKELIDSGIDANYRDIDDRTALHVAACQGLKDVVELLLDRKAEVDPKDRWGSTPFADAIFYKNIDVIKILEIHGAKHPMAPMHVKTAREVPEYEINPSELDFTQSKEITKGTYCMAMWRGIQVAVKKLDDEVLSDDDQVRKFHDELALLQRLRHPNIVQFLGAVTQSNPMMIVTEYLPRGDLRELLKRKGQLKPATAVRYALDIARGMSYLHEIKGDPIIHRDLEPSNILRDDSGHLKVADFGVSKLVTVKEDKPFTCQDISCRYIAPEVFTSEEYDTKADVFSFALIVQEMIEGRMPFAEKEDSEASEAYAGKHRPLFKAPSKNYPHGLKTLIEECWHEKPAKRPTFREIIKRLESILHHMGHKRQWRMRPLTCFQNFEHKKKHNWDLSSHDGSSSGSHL

In the case of “RBOHD, split-YFP fusion for BiFC (from UniProt Q9FIJ0 1-921) (enzyme)”, the binding [1] is reported as “binds”.

“ILK5-cLUC (from UniProt Q93Z30 1-459) (enzyme)” was tested, and the binding [2] was “binds”.

With “ILK5^S192D, split-luciferase fusion for LCI (from UniProt Q93Z30 1-459) (enzyme)” the binding [2] was “binds”.

For “ILK5^S192A, split-luciferase fusion for LCI (from UniProt Q93Z30 1-459) (enzyme)”, the binding [2] was “binds”.

B1: MKK4-nLUC (enzyme, UniProt O80397 1-366)
chain: MRPIQSPPGVSVPVKSRPRRRPDLTLPLPQRDVSLAVPLPLPPTSGGSGGSSGSAPSSGGSASSTNTNSSIEAKNYSDLVRGNRIGSGAGGTVYKVIHRPSSRLYALKVIYGNHEETVRRQICREIEILRDVNHPNVVKCHEMFDQNGEIQVLLEFMDKGSLEGAHVWKEQQLADLSRQILSGLAYLHSRHIVHRDIKPSNLLINSAKNVKIADFGVSRILAQTMDPCNSSVGTIAYMSPERINTDLNQGKYDGYAGDIWSLGVSILEFYLGRFPFPVSRQGDWASLMCAICMSQPPEAPATASPEFRHFISCCLQREPGKRRSAMQLLQHPFILRASPSQNRSPQNLHQLLPPPRPLSSSSSPTT
In the case of B1, the binding [3] is reported as “binds”, the binding [4] is reported as “binds” and the binding [5] is reported as “binds”.

B2: MKK5-nLUC (enzyme, UniProt Q8RXG3 1-348)
chain: MKPIQSPSGVASPMKNRLRKRPDLSLPLPHRDVALAVPLPLPPPSSSSSAPASSSAISTNISAAKSLSELERVNRIGSGAGGTVYKVIHTPTSRPFALKVIYGNHEDTVRRQICREIEILRSVDHPNVVKCHDMFDHNGEIQVLLEFMDQGSLEGAHIWQEQELADLSRQILSGLAYLHRRHIVHRDIKPSNLLINSAKNVKIADFGVSRILAQTMDPCNSSVGTIAYMSPERINTDLNHGRYDGYAGDVWSLGVSILEFYLGRFPFAVSRQGDWASLMCAICMSQPPEAPATASQEFRHFVSCCLQSDPPKRWSAQQLLQHPFILKATGGPNLRQMLPPPRPLPSAS
In the case of B2, the binding [3] is reported as “binds”, the binding [4] is reported as “binds” and the binding [5] is reported as “binds”.

B3: ILK5-cYFP (enzyme, UniProt Q93Z30 1-459)
chain: MEEDYQQPRFTIGRQSSMAPEKIPEPSVHSEEEVFEDGEEIDGGVRLMYLANEGDIEGIKELIDSGIDANYRDIDDRTALHVAACQGLKDVVELLLDRKAEVDPKDRWGSTPFADAIFYKNIDVIKILEIHGAKHPMAPMHVKTAREVPEYEINPSELDFTQSKEITKGTYCMAMWRGIQVAVKKLDDEVLSDDDQVRKFHDELALLQRLRHPNIVQFLGAVTQSNPMMIVTEYLPRGDLRELLKRKGQLKPATAVRYALDIARGMSYLHEIKGDPIIHRDLEPSNILRDDSGHLKVADFGVSKLVTVKEDKPFTCQDISCRYIAPEVFTSEEYDTKADVFSFALIVQEMIEGRMPFAEKEDSEASEAYAGKHRPLFKAPSKNYPHGLKTLIEECWHEKPAKRPTFREIIKRLESILHHMGHKRQWRMRPLTCFQNFEHKKKHNWDLSSHDGSSSGSHL
For B3, the binding [6] was “binds”.

B4: Myc-tagged ILK5 (enzyme, UniProt Q93Z30 1-459)
chain: MEEDYQQPRFTIGRQSSMAPEKIPEPSVHSEEEVFEDGEEIDGGVRLMYLANEGDIEGIKELIDSGIDANYRDIDDRTALHVAACQGLKDVVELLLDRKAEVDPKDRWGSTPFADAIFYKNIDVIKILEIHGAKHPMAPMHVKTAREVPEYEINPSELDFTQSKEITKGTYCMAMWRGIQVAVKKLDDEVLSDDDQVRKFHDELALLQRLRHPNIVQFLGAVTQSNPMMIVTEYLPRGDLRELLKRKGQLKPATAVRYALDIARGMSYLHEIKGDPIIHRDLEPSNILRDDSGHLKVADFGVSKLVTVKEDKPFTCQDISCRYIAPEVFTSEEYDTKADVFSFALIVQEMIEGRMPFAEKEDSEASEAYAGKHRPLFKAPSKNYPHGLKTLIEECWHEKPAKRPTFREIIKRLESILHHMGHKRQWRMRPLTCFQNFEHKKKHNWDLSSHDGSSSGSHL
B4 was tested, and the binding [7] was “binds”.

B5: MKK4-nYFP (enzyme, UniProt O80397 1-366)
chain: MRPIQSPPGVSVPVKSRPRRRPDLTLPLPQRDVSLAVPLPLPPTSGGSGGSSGSAPSSGGSASSTNTNSSIEAKNYSDLVRGNRIGSGAGGTVYKVIHRPSSRLYALKVIYGNHEETVRRQICREIEILRDVNHPNVVKCHEMFDQNGEIQVLLEFMDKGSLEGAHVWKEQQLADLSRQILSGLAYLHSRHIVHRDIKPSNLLINSAKNVKIADFGVSRILAQTMDPCNSSVGTIAYMSPERINTDLNQGKYDGYAGDIWSLGVSILEFYLGRFPFPVSRQGDWASLMCAICMSQPPEAPATASPEFRHFISCCLQREPGKRRSAMQLLQHPFILRASPSQNRSPQNLHQLLPPPRPLSSSSSPTT
For B5, the binding [8] was “binds”.

B6: ILK6-cYFP (enzyme, UniProt Q9XI87 1-438)
chain: MSSDSPAAGDGGEQAAAGTSVPSPSYDKQKEKARVSRTSLILWHAHQNDAAAVRKLLEEDPTLVHARDYDKRTPLHVASLHGWIDVVKCLLEFGADVNAQDRWKNTPLADAEGARKQKMIELLKSHGGLSYGQNGSHFEPKPVPPPIPKKCDWEIEPAELDFSNAAMIGKGSFGEIVKAYWRGTPVAVKRILPSLSDDRLVIQDFRHEVDLLVKLRHPNIVQFLGAVTERKPLMLITEYLRGGDLHQYLKEKGGLTPTTAVNFALDIARGMTYLHNEPNVIIHRDLKPRNVLLVNSSADHLKVGDFGLSKLIKVQNSHDVYKMTGETGSYRYMAPEVFKHRRYDKKVDVFSFAMILYEMLEGEPPFANHEPYEAAKHVSDGHRPTFRSKGCTPDLRELIVKCWDADMNQRPSFLDILKRLEKIKETLPSDHHWGLFTS
In the case of B6, the binding [6] is reported as “no binding”.
